Positions count from the first letter of the chain named. No constants are given. Whether binding was seen depends on the method and setting. In cells and extracts the contact can be indirect. Some binding calls cover weakened binding; strength is not graded here. Where a sequence is shown, tags or fusion partners need not be part of it.
Experiments:
Experiment in all cases: co-IP; GFP-tagged proteins immunoprecipitated from 1% Triton X-100 extracts of spheroplasts with monoclonal anti-GFP antibody and protein A Sepharose, room temperature, 4 h; lysis buffer 150 mM NaCl, 10 mM HEPES-KOH pH 7.5, 5 mM MgCl2, 1 mM PMSF; blotted with anti-GFP or anti-Got1p
[1] = biological target: T1, SpVrg4p-GFP (wild type) (S. pombe) (UniProt Q9UTK8)
T1 sequence: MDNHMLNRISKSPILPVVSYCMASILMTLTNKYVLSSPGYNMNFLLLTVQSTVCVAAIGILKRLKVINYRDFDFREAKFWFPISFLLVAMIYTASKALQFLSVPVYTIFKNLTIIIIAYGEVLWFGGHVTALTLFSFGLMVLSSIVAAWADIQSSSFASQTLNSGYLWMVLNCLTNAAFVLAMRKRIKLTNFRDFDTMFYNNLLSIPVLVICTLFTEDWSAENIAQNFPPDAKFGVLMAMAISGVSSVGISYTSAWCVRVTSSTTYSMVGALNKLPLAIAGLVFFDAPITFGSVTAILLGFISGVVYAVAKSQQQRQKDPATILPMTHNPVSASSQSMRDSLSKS

[2] = biological target: T2, SpVrg4p-GFP A271V (S. pombe) (UniProt Q9UTK8)
T2 sequence: T1 sequence with A271V

[3] = biological target: T3, SpVrg4p-GFP S263C (S. pombe) (UniProt Q9UTK8)
T3 sequence: T1 sequence with S263C

[4] = biological target: T4, SpVrg4p-GFP S263C A271V double mutant (S. pombe) (UniProt Q9UTK8)
T4 sequence: T1 sequence with S263C, A271V

B1: Got1p (protein, UniProt Q9USJ2 1-129)
chain: MWLSDLQKIGVGTTALGFLFMIMGIFMFFDGPLLSLGNLLLVFGFFMIAGFSKSVSFFLRKDRMLGSISFFSGLLLTLFHFPIIGFFVECLGFFNLFKVFYPLIISFLRTVPYIGPYIDRLTSYQQSPV
In the case of B1, the binding [1] is reported as “binds”, the binding [2] is reported as “no binding” and the binding [3] is reported as “no binding”. For the same binder, the binding [4] was “no binding”.

— PMC8242086
